Binding data for two molecules are collected here from publication PMC7830611.

Experiment [1] deals with T1, AtCAX1, full length, in pGBKT7 (Arabidopsis thaliana) (UniProt Q39253).
T1 sequence: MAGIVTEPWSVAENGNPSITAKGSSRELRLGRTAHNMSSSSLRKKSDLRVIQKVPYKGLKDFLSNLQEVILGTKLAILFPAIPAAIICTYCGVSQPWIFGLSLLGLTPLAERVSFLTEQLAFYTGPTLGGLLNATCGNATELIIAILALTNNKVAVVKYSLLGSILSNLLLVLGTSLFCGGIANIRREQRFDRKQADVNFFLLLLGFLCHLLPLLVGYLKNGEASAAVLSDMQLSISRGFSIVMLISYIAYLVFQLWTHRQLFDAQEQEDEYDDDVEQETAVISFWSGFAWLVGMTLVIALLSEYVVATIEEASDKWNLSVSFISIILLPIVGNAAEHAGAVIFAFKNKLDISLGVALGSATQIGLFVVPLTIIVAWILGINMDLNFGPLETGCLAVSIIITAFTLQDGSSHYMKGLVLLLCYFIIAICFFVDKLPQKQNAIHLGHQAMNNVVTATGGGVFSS
Description: two-hybrid; Matchmaker Gold system, Y2HGold yeast; AtCAX1 constructs in pGBKT7, AtCAX4 constructs in pGADT7; SD-Leu-Trp-His-Ade+X-a-gal+AbA medium, 2-3 days at 30 °C; blue colonies.

Experiment [2] addresses T2, AtCAX1, full length, BiFC fusion (Arabidopsis thaliana) (UniProt Q39253).
T2 sequence: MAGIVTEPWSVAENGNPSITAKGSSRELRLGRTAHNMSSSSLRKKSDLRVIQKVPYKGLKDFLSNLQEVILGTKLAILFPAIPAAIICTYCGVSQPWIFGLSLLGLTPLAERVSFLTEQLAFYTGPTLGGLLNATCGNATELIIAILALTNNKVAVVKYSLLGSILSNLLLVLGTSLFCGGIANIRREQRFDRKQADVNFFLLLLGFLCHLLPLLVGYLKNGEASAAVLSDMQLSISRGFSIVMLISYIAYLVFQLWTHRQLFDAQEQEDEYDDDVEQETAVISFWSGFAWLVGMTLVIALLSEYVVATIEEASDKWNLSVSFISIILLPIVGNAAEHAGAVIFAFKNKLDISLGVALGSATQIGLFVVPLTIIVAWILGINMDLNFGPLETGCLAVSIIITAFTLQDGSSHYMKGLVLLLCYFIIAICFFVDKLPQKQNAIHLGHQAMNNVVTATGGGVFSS
Description: split reporter; BiFC with mVenus halves VN154 (nGFP) and VC80 (cGFP), 35S promoter, co-expressed in onion epidermal cells by particle bombardment; confocal microscopy.

No constants are given. Whether binding was seen depends on the method and setting. For some assays here: Binding seen in cells or lysates may run through a third protein. Some entries that bind do so weakly or less than the wild type. For some assays here: Where a sequence is shown, tags or fusion partners need not be part of it.

B1: AtCAX4, full length, in pGADT7 (protein, UniProt Q945S5 1-446)
chain: MSSISTESSSNLSLLENGGGGSDKPTAETSRRVRRTVSASSLIRKRSDLKLISRVRWEFMRRILTNLQEVLLGTKLFILFPAVPLAVVAHRYDCPRAWVFALSLLGLTPLAERISFLTEQIAFHTGPTVGGLMNATCGNATEMIIAILAVGQRKMRIVKLSLLGSILSNLLFVLGTSLFLGGISNLRKHQSFDPRQGDMNSMLLYLALLCQTLPMIMRFTMEAEEYDGSDVVVLSRASSFVMLIAYLAFLIFHLFSSHLSPPPPPLPQREDVHDDDVSDKEEEGAVIGMWSAIFWLIIMTLLVALLSDYLVSTIQDAADSWGLSVGFIGIILLPIVGNAAEHAGAVIFAFRNKLDITLGIALGSATQIALFVVPVTVLVAWTMGIEMDLNFNLLETACFALSILVTSLVLQDGTSNYMKGLVLLLCYVVIAACFFVSNSPSSKLLF
For the molecule B1, in experiment [1], the binding result is on record as “binds”.

B2: AtCAX4, full length, BiFC fusion (protein, UniProt Q945S5 1-446)
chain: MSSISTESSSNLSLLENGGGGSDKPTAETSRRVRRTVSASSLIRKRSDLKLISRVRWEFMRRILTNLQEVLLGTKLFILFPAVPLAVVAHRYDCPRAWVFALSLLGLTPLAERISFLTEQIAFHTGPTVGGLMNATCGNATEMIIAILAVGQRKMRIVKLSLLGSILSNLLFVLGTSLFLGGISNLRKHQSFDPRQGDMNSMLLYLALLCQTLPMIMRFTMEAEEYDGSDVVVLSRASSFVMLIAYLAFLIFHLFSSHLSPPPPPLPQREDVHDDDVSDKEEEGAVIGMWSAIFWLIIMTLLVALLSDYLVSTIQDAADSWGLSVGFIGIILLPIVGNAAEHAGAVIFAFRNKLDITLGIALGSATQIALFVVPVTVLVAWTMGIEMDLNFNLLETACFALSILVTSLVLQDGTSNYMKGLVLLLCYVVIAACFFVSNSPSSKLLF
For B2, the binding result in experiment [2] is listed as “binds”.
